Measurements as given in PubChem BioAssay AID624258 (Broad Institute, 2012).
The shares of active, inactive and inconclusive entries below differ from those in the screen. Activity calls are given as the source filed them. The rule behind the calls is not given here.

Experiment: Yeast SKN7 toxicity growth rescue counterscreen, Saccharomyces cerevisiae, plate reader, dose confirmatory (AID 624258);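 note: growth read after three days of incubation at 30 °C; 0% = median of neutral control wells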
Details: S. cerevisiae SKN7-toxicity growth rescue; at 19.5 µM (top of the series)
In the case of `CCOC(=O)c1ccc(N2C(=O)CC(N3CCC(O)(c4ccc(Cl)cc4)CC3)C2=O)cc1` (stereo not given), the growth rescue activity is reported as inactive: -16.1%.
For `O=C(N1CCN(c2cccc(Cl)c2)CC1)C1(S(=O)(=O)c2ccc(Cl)cc2)CC1`, the growth rescue activity was inconclusive: -13.2%.
With `CC(=O)C1=C(c2ccc(Br)cc2)C(=O)c2ccccc2C1=O` the growth rescue activity was inconclusive: -83%.
With `Cc1ccccc1NCC(=O)N/N=C\c1ccc([N+](=O)[O-])s1` the growth rescue activity was inconclusive: 211%.
With `O=C(NCCC1=CCCCC1)c1c(O)nc2sccn2c1=O` the growth rescue activity was inconclusive: 49.3%.
